Here are results for 17 sequences from paper PMC11317169.

Common to all, as to assay: filter binding
For series [1], the target named is alpha-synuclein R-type fibril (Homo sapiens) (UniProt P37840). The conditions noted are these: 37 C, 1 uM (screen) or 250 nM (Kd) monomer equivalents, purified recombinant protein, label: 32P.
Series [2] has as its target alpha-synuclein F-type fibril (Homo sapiens) (UniProt P37840). The conditions noted are these: 37 C, 1 uM (screen) or 250 nM (Kd) monomer equivalents, purified recombinant protein, label: 32P.
Series [3] has as its target alpha-synuclein monomer (Homo sapiens) (UniProt P37840). As to conditions: 2'-F pyrimidines; helper DNA with two LNA G paired to the 3' end; 37 C; 1 uM (screen) or 250 nM (Kd) monomer equivalents; purified recombinant protein; label: 32P.
The mark [4] stands for this setting: 2'-F pyrimidines, helper DNA with two LNA G paired to the 3' end.

A negative result means that nothing was seen under these conditions.

With “ATACTGCCATTCATTTCATTTGCCTGTGGTGTTGGGGCGGGTGCGTTTAGATATCAGCATGTGTCA [T-SO508 DNA]”, the binding result in series [1] (single-stranded DNA) and in series [2] (single-stranded DNA) was “binds” each time.

Consider “ATAGTCCCATCATTCATTGTATGGTACGGCGCGGTGGCGGGTGCGTGGAGATATTAGCAAGTGTCA [M5-15 DNA]”, for which the binding result in series [1] (single-stranded DNA) and in series [2] (single-stranded DNA) was “no binding” throughout.

As for “ATCGAGTGGACGAGTGCCTCCGGTACGAGCTGTCTGATGGGTTTGCGCGCAGGATCCA [F5R2 DNA]”, the binding result in series [1] (single-stranded DNA) and in series [2] (single-stranded DNA) was “no binding” in each case.

For the sequence “ATCGAGTGTGTACGGGGTCCGGTAGGGTGGCGAGGTCTTCCTGTCGTAGCAGGATCCA [F5R1 DNA]”, the binding result in series [1] (single-stranded DNA) and in series [2] (single-stranded DNA) was “binds” throughout.

Turning to “GGGAGAGUAUCCGUUGAGGCUGAACGCGUUUACUCCGCUAGUACGAACCCGAUUGCCCAGAUCGGAAGAGCGUCGUGUAGGGCAUUGCCCCAGCGUGACUGCCUA / TAGGCAGTCACGCTGGGGCAATGC [F004 RNA]”, the binding result in series [1] (setting [4]) and in series [3] was “no binding” throughout.

For the sequence “GGGAGAGUAUCCGUUGAGGCUGAAGCCAUGCUGUCAACUUUUAACUCGUCACCGCUCGAGAUCGGAAGAGCGUCGUGUAGGGCAUUGCCCCAGCGUGACUGCCUA / TAGGCAGTCACGCTGGGGCAATGC [F005 RNA]”, the binding result in series [1] (setting [4]) and in series [3] was “no binding” in each case.

As for “GGGAGAGUAUCCGUUGAGGCUGAAUCCGACCAACCCAACGCGUUUACCUCACCUGCAAGAUCGGAAGAGCGUCGUGUAGGGCAUUGCCCCAGCGUGACUGCCUA / TAGGCAGTCACGCTGGGGCAATGC [F001 RNA]”, the binding result in series [1] (setting [4]), in series [2] (setting [4]) and in series [3] was “no binding” each time.

Consider “GGGAGAGUAUCCGUUGAGGCUGAAUCGGCCACAGUCGACAACUUUGAAAUCCACCUGCAGAUCGGAAGAGCGUCGUGUAGGGCAUUGCCCCAGCGUGACUGCCUA / TAGGCAGTCACGCTGGGGCAATGC [F015 RNA]”, for which the binding result in series [1] (setting [4]) and in series [3] was “no binding” in each case.

Consider “GGGAGAGUAUCCGUUGAGGCUGACAACGCGUUUACCUCACACCACGUCAUCCGUUGCCAGAUCGGAAGAGCGUCGUGUAGGGCAUUGCCCCAGCGUGACUGCCUA / TAGGCAGTCACGCTGGGGCAATGC [F003 RNA]”, for which the binding result in series [1] (setting [4]) is “no binding”; in series [2] (setting [4]) it was “binds”; in series [3], “no binding”.

On to “GGGAGAGUAUCCGUUGAGGCUGACAACUUGAAAUCCCAACCCUGCAGCCGUGUCUGGUAGAUCGGAAGAGCGUCGUGUAGGGCAUUGCCCCAGCGUGACUGCCUA / TAGGCAGTCACGCTGGGGCAATGC [F073 RNA]”, for which the binding result in series [1] (setting [4]) and in series [3] was “no binding” each time.

In the case of “GGGAGAGUAUCCGUUGAGGCUGAGCAGCACAUGACCUCACCUUUUACUCUGCGCUGCAAGAUCGGAAGAGCGUCGUGUAGGGCAUUGCCCCAGCGUGACUGCCUA / TAGGCAGTCACGCTGGGGCAATGC [F020 RNA]”, the binding result in series [1] (setting [4]) and in series [3] was “no binding” in each case.

For “GGGAGAGUAUCCGUUGAGGCUGAGUUUCCGAACGGCCCAACUUUGAAAUCCCCGCCCGAGAUCGGAAGAGCGUCGUGUAGGGCAUUGCCCCAGCGUGACUGCCUA / TAGGCAGTCACGCTGGGGCAATGC [F062 RNA]”, the binding result in series [1] (setting [4]) and in series [3] was “no binding” in each case.

For the sequence “GGGAGAGUAUCCGUUGAGGCUGAGUUUCCGACCACGACCCAACGUUACUGCCCACCACAGAUCGGAAGAGCGUCGUGUAGGGCAUUGCCCCAGCGUGACUGCCUA / TAGGCAGTCACGCTGGGGCAATGC [F164 RNA]”, the binding result in series [1] (setting [4]) and in series [3] was “no binding” in each case.

As for “GGGAGAGUAUCCGUUGAGGCUGAUCAGUCCAGUACGAGACGCGUUUACCUCCACUGCAAGAUCGGAAGAGCGUCGUGUAGGGCAUUGCCCCAGCGUGACUGCCUA / TAGGCAGTCACGCTGGGGCAATGC [F000 RNA]”, the binding result in series [1] (setting [4]) and in series [3] was “no binding” each time.

“GGGAGAGUAUCCGUUGAGGCUGAUCCGACCAUGCUUCAACUUAUACCUCGGGGACUGUAGAUCGGAAGAGCGUCGUGUAGGGCAUUGCCCCAGCGUGACUGCCUA / TAGGCAGTCACGCTGGGGCAATGC [F124 RNA]”: the binding result in series [1] (setting [4]) and in series [3] was “no binding” throughout. The equilibrium dissociation constant (Kd) in series [2] (setting [4]) amounted to 8.8 nM.

For the sequence “GGGAGAGUAUCCGUUGAGGCUGAUCGAUCCACGUCCGACAACGCGUUUACUCGCCAUCAGAUCGGAAGAGCGUCGUGUAGGGCAUUGCCCCAGCGUGACUGCCUA / TAGGCAGTCACGCTGGGGCAATGC [F030 RNA]”, the binding result in series [1] (setting [4]) and in series [3] was “no binding” throughout. Further, in series [2] (setting [4]), the Kd turned out to be 6.6 nM.

With “GGGAGAGUAUCCGUUGAGGCUGAUUCCGACCGCCGCAACUUAUAGGUAUCCCGCUGCAAGAUCGGAAGAGCGUCGUGUAGGGCAUUGCCCCAGCGUGACUGCCUA / TAGGCAGTCACGCTGGGGCAATGC [F002 RNA]”, the binding result in series [1] (setting [4]), in series [2] (setting [4]) and in series [3] was “no binding” throughout.

As a reminder, the Kd is the concentration at which binding is half-saturated.
